Measured values from the supplement of paper PMC8728848.
The other results are listed elsewhere or left out.

Key:
Experiment in all cases: glycan array binding signal (z-score within array); higher = stronger binding
Settings in all cases: glycan notation: IUPAC condensed, linker removed
[1] = target: Gal(a1-3)Gal
Method in brief: (§1)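 Glycan array data came from 3228 arrays in the Consortium for Functional Glycomics database, and only arrays with an available protein sequence were kept. Glycan names were put into IUPAC-condensed notation, and columns mapping to the same glycan were averaged. The binding signal is a within-array Z-score, averaged across arrays of one protein sequence run at different concentrations or buffers and across linkers. A negative Z-score can be read as non-binding.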

[2] = target: Gal(a1-3)Gal(b1-3)GlcNAc
Method in brief: as §1

[3] = target: Gal(a1-3)Gal(b1-3)GlcNAc(b1-2)Man(a1-3)[Gal(a1-3)Gal(b1-3)GlcNAc(b1-2)Man(a1-6)]Man(b1-4)GlcNAc(b1-4)GlcNAc
Method in brief: as §1

[4] = target: Gal(a1-3)Gal(b1-3)GlcNAc(b1-3)GalNAc
Method in brief: as §1

[5] = target: Gal(a1-3)Gal(b1-3)[Fuc(a1-4)]GlcNAc(b1-2)Man(a1-3)[Gal(a1-3)Gal(b1-3)[Fuc(a1-4)]GlcNAc(b1-2)Man(a1-6)]Man(b1-4)GlcNAc(b1-4)GlcNAc
Method in brief: as §1

[6] = target: Gal(a1-3)Gal(b1-4)Glc
Method in brief: as §1

[7] = target: Gal(a1-3)Gal(b1-4)GlcNAc
Method in brief: as §1

[8] = target: Gal(a1-3)Gal(b1-4)GlcNAc(b1-3)GalNAc
Method in brief: as §1

[9] = target: Gal(a1-3)Gal(b1-4)[Fuc(a1-3)]GlcNAc
Method in brief: as §1

[10] = target: Gal(a1-3)Gal(b1-4)[Fuc(a1-3)]GlcNAc(b1-2)Man(a1-3)[Gal(a1-3)Gal(b1-4)[Fuc(a1-3)]GlcNAc(b1-2)Man(a1-6)]Man(b1-4)GlcNAc(b1-4)GlcNAc
Method in brief: as §1

[11] = target: Gal(a1-3)GalNAc
Method in brief: as §1

[12] = target: Gal(a1-3)[Gal(a1-4)]Gal(b1-4)GlcNAc
Method in brief: as §1

[13] = target: Gal(a1-4)Gal(b1-3)GlcNAc(b1-2)Man(a1-3)[Gal(a1-4)Gal(b1-3)GlcNAc(b1-2)Man(a1-6)]Man(b1-4)GlcNAc(b1-4)GlcNAc
Method in brief: as §1

[14] = target: Gal(a1-4)Gal(b1-4)Glc
Method in brief: as §1

[15] = target: Gal(a1-4)Gal(b1-4)GlcNAc
Method in brief: as §1

[16] = target: Gal(a1-4)Gal(b1-4)GlcNAc(b1-2)Man(a1-3)[Gal(a1-4)Gal(b1-4)GlcNAc(b1-2)Man(a1-6)]Man(b1-4)GlcNAc(b1-4)GlcNAc
Method in brief: as §1

[17] = target: Gal(a1-4)Gal(b1-4)GlcNAc(b1-3)Gal(b1-4)Glc
Method in brief: as §1

[18] = target: Gal(a1-4)GlcNAc
Method in brief: as §1

[19] = target: Gal(a1-6)Glc
Method in brief: as §1

[20] = target: Gal(b1-2)Gal
Method in brief: as §1

[21] = target: Gal(b1-3)Gal
Method in brief: as §1

[22] = target: Gal(b1-3)Gal(b1-4)GlcNAc
Method in brief: as §1

[23] = target: Gal(b1-3)Gal(b1-4)GlcNAc(b1-2)Man(a1-3)[Gal(b1-3)Gal(b1-4)GlcNAc(b1-2)Man(a1-6)]Man(b1-4)GlcNAc(b1-4)GlcNAc
Method in brief: as §1

[24] = target: Gal(b1-3)GalNAc
Method in brief: as §1

[25] = target: Gal(b1-3)GalNAc(a1-3)[Fuc(a1-2)]Gal(b1-4)Glc
Method in brief: as §1

[26] = target: Gal(b1-3)GalNAc(a1-3)[Fuc(a1-2)]Gal(b1-4)GlcNAc
Method in brief: as §1

[27] = target: Gal(b1-3)GalNAc(b1-3)Gal(a1-4)Gal(b1-4)Glc
Method in brief: as §1

[28] = target: Gal(b1-3)GalNAc(b1-4)Gal(b1-4)Glc
Method in brief: as §1

[29] = target: Gal(b1-3)GalNAc(b1-4)[Neu5Ac(a2-3)]Gal(b1-4)Glc
Method in brief: as §1

[30] = target: Gal(b1-3)GlcNAc
Method in brief: as §1

[31] = target: Gal(b1-3)GlcNAc(a1-6)Gal(b1-4)GlcNAc
Method in brief: as §1

[32] = target: Gal(b1-3)GlcNAc(b1-2)Man(a1-3)[Gal(b1-3)GlcNAc(b1-2)Man(a1-6)]Man(b1-4)GlcNAc(b1-4)GlcNAc
Method in brief: as §1

[33] = target: Gal(b1-3)GlcNAc(b1-2)Man(a1-3)[Gal(b1-3)GlcNAc(b1-2)Man(a1-6)]Man(b1-4)GlcNAc(b1-4)[Fuc(a1-6)]GlcNAc
Method in brief: as §1

[34] = target: Gal(b1-3)GlcNAc(b1-2)[Gal(b1-3)GlcNAc(b1-6)]Man(a1-6)[Gal(b1-3)GlcNAc(b1-2)Man(a1-3)]Man(b1-4)GlcNAc(b1-4)GlcNAc
Method in brief: as §1

[35] = target: Gal(b1-3)GlcNAc(b1-3)Gal(b1-3)GlcNAc
Method in brief: as §1

[36] = target: Gal(b1-3)GlcNAc(b1-3)Gal(b1-4)Glc
Method in brief: as §1

[37] = target: Gal(b1-3)GlcNAc(b1-3)Gal(b1-4)GlcNAc
Method in brief: as §1

B1: PGP3 (Chlamydia trachomatis), P0CE18 (protein)
chain: MGNSGFYLYNTQNCVFADNIKVGQMTEPLKDQQIILGTTSTPVAAKMTASDGISLTVSNNPSTNASITIGLDAEKAYQLILEKLGDQILGGIADTIVDSTVQDILDKITTDPSLGLLKAFNNFPITNKIQCNGLFTPRNIETLLGGTEIGKFTVTPKSSGSMFLVSADIIASRMEGGVVLALVREGDSKPYAISYGYSSGVPNLCSLRTRIINTGLTPTTYSLRVGGLESGVVWVNALSNGNDILGITNTSNVSFLEVIPQTNA
With B1 the “glycan array binding signal (z-score)” value [1] was 0.842, the “glycan array binding signal (z-score)” value [2] was -0.446 and the “glycan array binding signal (z-score)” value [3] was -1.59. For the same binder, the “glycan array binding signal (z-score)” value [4] was 0.477, the “glycan array binding signal (z-score)” value [5] was -1.01 and the “glycan array binding signal (z-score)” value [6] was -0.22. The “glycan array binding signal (z-score)” value [7] was -0.531, the “glycan array binding signal (z-score)” value [8] was -0.049 and the “glycan array binding signal (z-score)” value [9] was -0.404. The “glycan array binding signal (z-score)” value [10] was 1.76, the “glycan array binding signal (z-score)” value [11] was -0.245 and the “glycan array binding signal (z-score)” value [12] was 0.017. The “glycan array binding signal (z-score)” value [13] was 3.06, the “glycan array binding signal (z-score)” value [14] was -1.34 and the “glycan array binding signal (z-score)” value [15] was 0.13. The “glycan array binding signal (z-score)” value [16] was 1.94, the “glycan array binding signal (z-score)” value [17] was -0.099 and the “glycan array binding signal (z-score)” value [18] was 1.52. For the same binder, the “glycan array binding signal (z-score)” value [19] was -1.92, the “glycan array binding signal (z-score)” value [20] was 0.34 and the “glycan array binding signal (z-score)” value [21] was 0.468. For the same binder, the “glycan array binding signal (z-score)” value [22] was -0.606, the “glycan array binding signal (z-score)” value [23] was -1.08 and the “glycan array binding signal (z-score)” value [24] was 0.049. For the same binder, the “glycan array binding signal (z-score)” value [25] was -0.698, the “glycan array binding signal (z-score)” value [26] was -0.558 and the “glycan array binding signal (z-score)” value [27] was -0.346. The “glycan array binding signal (z-score)” value [28] was 1.25, the “glycan array binding signal (z-score)” value [29] was -0.761 and the “glycan array binding signal (z-score)” value [30] was -0.522. For the same binder, the “glycan array binding signal (z-score)” value [31] was 0.546, the “glycan array binding signal (z-score)” value [32] was 1.2 and the “glycan array binding signal (z-score)” value [33] was -0.43. For the same binder, the “glycan array binding signal (z-score)” value [34] was -0.594, the “glycan array binding signal (z-score)” value [35] was -0.292 and the “glycan array binding signal (z-score)” value [36] was -0.455. For the same binder, the “glycan array binding signal (z-score)” value [37] was -0.084.
